Results published in paper PMC5522482.
These are yes or no findings as the source states them, for the method shown. Binding calls can cover weak binding; strength is not graded here.

T1: Recombinant human IL-37 (human) (UniProt Q9NZH6)
T1 sequence: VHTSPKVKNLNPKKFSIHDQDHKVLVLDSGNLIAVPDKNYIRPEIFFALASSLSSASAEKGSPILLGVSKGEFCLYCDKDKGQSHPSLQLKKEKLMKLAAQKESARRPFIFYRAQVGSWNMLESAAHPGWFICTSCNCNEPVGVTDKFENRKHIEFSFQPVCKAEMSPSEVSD


Experiments:
[1] = molecular target: T1, Recombinant human IL-37 (human); assay: pull-down; recombinant TGF-β1 (100 nmol/l) mixed with recombinant IL-37 (50 nmol/l) in RIPA buffer, applied to anti-IL-37 antibody Dynabeads, room temperature, 20 min; Western blot; both purified
[2] = molecular target: Recombinant human TGF-β1 (human); assay: ELISA; TGF-β1 (2 μg/ml) coated on ELISA plates, blocked with 2% BSA; serial dilution of IL-37 at 4 °C overnight; bound IL-37 detected with biotinylated IL-37 antibody and streptavidin-HRP; both purified

| binding [1] | binding [2] | Molecule |
| --- | --- | --- |
| binds |  | Recombinant human TGF-β1 (ligand) |
|  | binds | Recombinant human IL-37 (ligand, UniProt Q9NZH6 46-218) VHTSPKVKNLNPKKFSIHDQDHKVLVLDSGNLIAVPDKNYIRPEIFFALASSLSSASAEKGSPILLGVSKGEFCLYCDKDKGQSHPSLQLKKEKLMKLAAQKESARRPFIFYRAQVGSWNMLESAAHPGWFICTSCNCNEPVGVTDKFENRKHIEFSFQPVCKAEMSPSEVSD |
